From paper doi:10.1101/156513 come the findings set out here.

These are yes or no findings as the source states them, for the method shown. In cells and extracts the contact can be indirect. A result given as binding can be weak or reduced; the word gives no strength. Where a sequence is shown, tags or fusion partners need not be part of it.

For this assay, the target named is GST fused to the C-terminal region of occludin (UniProt Q61146). The assay is described as follows: pull-down.

B1: GFP-tagged ZPSG region of ZO-2 (ZPSG-2, 509-880) (domain or fragment, UniProt Q9UDY2 509-880)
chain: NTKMVRFKKGDSVGLRLAGGNDVGIFVAGIQEGTSAEQEGLQEGDQILKVNTQDFRGLVREDAVLYLLEIPKGEMVTILAQSRADVYRDILACGRGDSFFIRSHFECEKETPQSLAFTRGEVFRVVDTLYDGKLGNWLAVRIGNELEKGLIPNKSRAEQMASVQNAQRDNAGDRADFWRMRGQRSGVKKNLRKSREDLTAVVSVSTKFPAYERVLLREAGFKRPVVLFGPIADIAMEKLANELPDWFQTAKTEPKDAGSEKSTGVVRLNTVRQIIEQDKHALLDVTPKAVDLLNYTQWFPIVIFFNPDSRQGVKTMRQRLNPTSNKSSRKLFDQANKLKKTCAHLFTATINLNSANDSWFGSLKDTIQHQQG
As to B1, the binding entry is “binds”.
